The list shows a part of the results. These are further read-outs of the screen, such as a control signal, another cell line or another target. No call is given for them. The list favours compounds with an active or inconclusive main result. Potencies come from curve fits of mixed quality, noted in brackets.
Test: qHTS Assay for Inhibitors of PDE-IV (AID 607)
Settings: HEK293 ACTOne CNG channel cells, membrane potential fluorescence; measured here: parental cell counter-screen
Outline: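 Cell-based read-out of cAMP via a modified cyclic nucleotide-gated channel and membrane potential dye (535/590 nm) in HEK293 cells expressing PDE4 endogenously. Compounds tested up to 22.9 uM final; 100 uM RO 20-1724 reference.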

Row | Structure (SMILES) | AC50
1 | COC(=O)[C@@]1(Cc2ccc(F)cc2)[C@H]2c3cc(C(=O)N4CCCC4)n(Cc4ccc(OC(F)(F)F)cc4)c3C[C@H]2CN1C(=O)c1ccccc1 | 1.58 µM [rising, full curve]
2 | C/C(=C\c1ccc(Cl)cc1)C(C)(C)C(=O)O | 3.16 µM [rising, single point]
3 | COc1ccc(NC(=O)N2CC3(CCN(C(=O)c4c(C)noc4C)CC3)C2)cc1 | 3.98 µM [rising, single point]
4 | Cc1ccc(OC[C@H](O)[C@H](C)NC(C)C)c2c1CCC2 | 12.6 µM [rising, partial curve]
5 | CC(=O)[C@@H]1CC[C@@H]2[C@@H]3CCC4=CC(=O)CC[C@@]4(C)[C@H]3CC[C@]21C | 6.31 µM [rising, partial curve, poor fit]
6 | Nc1nc(SCc2ccccc2Cl)cc(C(=O)O)n1 | 1.58 µM [rising, partial curve]
7 | O=C1[C@@H]2C=CC=CC2=NC(=S)N1CCN1CCC(=C(c2ccc(F)cc2)c2ccc(F)cc2)CC1 | 15.8 µM [rising, partial curve]
8 | COc1ccc2c(c1)[C@]1(C)CCC[C@](C)(CO)[C@@H]1CC2 | 31.6 µM [rising, single point]
9 | O=C(c1ccco1)N1CCC2(CC1)CCN(c1cccc(-c3ccccc3)c1)CC2 | 0.794 µM [rising, single point]
10 | COc1ccccc1CNc1ncncc1-c1ccccc1OC | 12.6 µM [rising, partial curve]
11 | N#Cc1ccccc1-c1ccc2ncnc(NCc3cccs3)c2c1 | 10 µM [rising, single point]
12 | NC(=O)SCC(=O)Nc1ccc2ncccc2c1 | 2.51 µM [falling, single point]
13 | CCC[C@@H]1C[C@@]1(CCC)C(NP(=O)(c1ccccc1)c1ccccc1)c1ccc(Cl)cc1 (some centres undefined) | 10 µM [rising, partial curve]
14 | C[C@H](NCCC(c1ccccc1)c1ccccc1)c1ccccc1 | 7.94 µM [rising, single point]
15 | O[Si@](CCCN1CCCCC1)(c1ccc(F)cc1)C1CCCCC1 | 10 µM [rising, partial curve]
16 | CCCC[C@@H]1C[C@H]1C(NC(=O)c1ccccc1)c1ccc(Cl)cc1 (some centres undefined) | 5.01 µM [rising, partial curve]
17 | CN(C)Cc1ccccc1-c1nc(NCc2ccccc2)c2ccccc2n1 | 10 µM [rising, partial curve]
18 | N#Cc1ccc(CN2CCCC3(CCN(C(=O)c4cccc(F)c4)CC3)C2)cc1 | 12.6 µM [rising, single point]
19 | COC(=O)[C@@]1(Cc2ccccc2)[C@H]2c3cc(C(=O)N(C)C)n(Cc4cc(F)c(F)c(F)c4)c3C[C@H]2CN1C(=O)c1ccccc1 | 2.51 µM [rising, single point]
20 | C=C[C@@]1(C)CC(=O)[C@@]2(O)[C@@]3(C)[C@@H](O)CCC(C)(C)[C@@H]3[C@H](O)[C@H](OC(C)=O)[C@@]2(C)O1 | 0.631 µM [rising, full curve]
21 | CCCC[C@@H]1C[C@H]1C(NC(=O)c1ccco1)c1ccc(Cl)cc1 (some centres undefined) | 12.6 µM [rising, single point]
22 | COC(=O)[C@@]1(Cc2ccc(F)cc2)[C@H]2c3cc(C(=O)N(C)C)n(Cc4ccc(OC(F)(F)F)cc4)c3C[C@H]2CN1C(=O)c1ccccc1 | 2.51 µM [rising, single point]
23 | FC(F)(F)c1ccccc1-c1ccc2ncnc(NCc3cccs3)c2c1 | 7.94 µM [rising, partial curve]
24 | O=C(Cc1ccc(Cl)c(Cl)c1)OCCN1CCCC1 | 6.31 µM [rising, partial curve, poor fit]
25 | C[C@@H](C(=O)Nc1ccc2ccccc2c1)[C@@H]1C[C@@]1(C)[C@@H](NC(=O)c1ccccc1)c1ccccc1 | 0.631 µM [rising, single point]
26 | C[C@@]12CC3CC(N)(C1)C[C@@](C)(C3)C2 | 10 µM [rising, partial curve, poor fit]
27 | CCn1cc(C(=O)O)c(=O)c2cnc(N3CCNCC3)nc21 | 0.00126 µM [rising, full curve, poor fit]
28 | CCc1cccc2c(-c3ccccc3)c3c(nc12)OCC3 | 10 µM [rising, single point]
29 | O=C(O)Cc1ccc(-c2ccccc2)cc1 | 0.316 µM [rising, full curve]

Individual results from the list.
AC50 with CCC[C@@H]1C[C@@]1(CCC)C(NP(=O)(c1ccccc1)c1ccccc1)c1ccc(Cl)cc1 (some centres undefined) is entered as 10 µM [rising, partial curve]
AC50 with C[C@@H](C(=O)Nc1ccc2ccccc2c1)[C@@H]1C[C@@]1(C)[C@@H](NC(=O)c1ccccc1)c1ccccc1 is entered as 0.631 µM [rising, single point]

— PubChem BioAssay (NCATS)
